Screen size: about 5,300 compounds; about 130 (2.5%) showed an effect of 50% or more. This is one part of the list.

The subject of the assay is M. mycetomatis strain mm55. To be noted: primary screen, metabolic activity vs growth control; 96 h, 2 µM; inhibitor.
As for `OC1(c2ccc(Cl)c(C(F)(F)F)c2)CCN(CCCC(c2ccc(F)cc2)c2ccc(F)cc2)CC1` [ONC0004118, penfluridol], the “% viability” value was found to be 98.09%. Turning to `c1ccc(CN2CCC3(CCc4ccccc43)CC2)cc1` [ONC0002495, l693403], the “% viability” value is 125.9%. Turning to `CC(CC(c1ccccc1)c1ccccc1)NC(C)(C)C` (centres unmarked) [ONC0005592, terodiline], the “% viability” value is 109.9%. Consider `CCN1CCN(c2cc3c(cc2F)c(=O)c(C(=O)O)cn3C2CC2)CC1` [ONC0002394, enrofloxacin], for which the “% viability” value was determined as 99.08%. For `O=C1C2CC3CC1CC(O)(C3)C2` [ONC0005367, idramantone], the “% viability” value came out at 117.2%. Turning to `FC(F)c1nc2ccccc2n1-c1nc(N2CCOCC2)nc(N2CCOCC2)n1` [ONC0004685, zstk474], the “% viability” value is 110.1%. Turning to `CCn1c(N)c(C(=O)NC)c(=O)c2ccc(C#C[C@@](C)(O)COC)nc21` [ONC0005244, sar131675], the “% viability” value is 151.7%. For the compound `COc1cc(NS(C)(=O)=O)ccc1Nc1c2ccccc2nc2ccccc12` [ONC0002819, amsacrine], the “% viability” value came out at 122.1%. For `CCN1CCC[C@H]1CNC(=O)c1c(OC)ccc(Br)c1OC` [ONC0001453, remoxipride], the “% viability” value amounted to 82.81%. Turning to `CC(C)C(C(=O)Nc1nccs1)c1ccc(Cl)cc1` (centres unmarked) [ONC0004465, 4cmtb], the “% viability” value was found to be 150.7%. The value for `NC(=O)CN1C=CCC(C(N)=O)=C1` [ONC0003832, caricotamide] was 57.08%; that for `COC(=O)N[C@H](C(=O)N1CCC[C@H]1C(=O)Nc1ccc([C@@H]2CC[C@@H](c3ccc(NC(=O)[C@@H]4CCCN4C(=O)[C@@H](NC(=O)OC)C(C)C)cc3)N2c2ccc(C(C)(C)C)cc2)cc1)C(C)C` [ONC0002011, ombitasvir] was 108.9%; that for `Cc1nnc(NS(=O)(=O)c2ccc(N)cc2)s1` [ONC0000591, sulfamethizole] was 101.6%. The value for `N=C(N)S/C=C\C(=O)O` [ONC0004454, zapa] was 108.4%. For the compound `COc1ccc(O)c(C(C)(C)C)c1` [ONC0002424, butylated hydroxyanisole], the “% viability” value was determined as 103.3%. The value for `CCCC[C@H](NC(C)=O)C(=O)N[C@H]1CC(=O)NCCCC[C@@H](C(=O)O)NC(=O)[C@H](Cc2c[nH]c3ccccc23)NC(=O)[C@H](CCCN=C(N)N)NC(=O)[C@@H](Cc2ccccc2)NC(=O)[C@H](Cc2cnc[nH]2)NC1=O` [ONC0002156, bremelanotide acetate] was 73.73%. To `Cc1cc(NCCO)nc(-c2ccc(Br)cc2)n1` [ONC0001665, as1269574] belongs 73.35%.

The values above are taken from PMC12670160, “A drug-repurposing screen of FDA- and EMA-approved drugs identifies two NF-κB inhibitors active against eumycetoma” (Journal of Antimicrobial Chemotherapy, 2025).
